# Measurements reported in the supplement of paper PMC5393889.
# The list shows a part of the results.
# System: Caenorhabditis elegans N2
# Assay: aldicarb interaction hit call (worm growth perturbed in combination with 10 uM aldicarb in both replicates, no effect as single agent) (binary (1 = interacts)); higher = interacts with aldicarb (growth perturbed)
# Conditions: first compound 1.5 µM; aldicarb concentration 10 µM; 6 days; 20 °C
row,Compound,aldicarb interaction hit call
1,O=C(NCCC1=CCCCC1)c1ccc(OC2CCN(Cc3ccccn3)CC2)cc1 [wact-234] + CNC(=O)O/N=C/C(C)(C)SC [aldicarb],inactive: 0
2,O=C(NC(=S)Nc1ccccc1Cl)c1cccs1 [wact-458] + CNC(=O)O/N=C/C(C)(C)SC [aldicarb],inactive: 0
3,CC(C)(C)C(=O)NC(=S)Nc1ccc(Br)cc1 [wact-384] + CNC(=O)O/N=C/C(C)(C)SC [aldicarb],inactive: 0
4,COc1ccccc1C(=O)Nc1ccc(N2CCN(C(=O)c3ccc(C)cc3)CC2)cc1 [wact-545] + CNC(=O)O/N=C/C(C)(C)SC [aldicarb],inactive: 0
5,CCCn1c2ccccc2c2nnc(SCc3ccncc3)nc21 [wact-585] + CNC(=O)O/N=C/C(C)(C)SC [aldicarb],inactive: 0
6,c1ccc(COc2ccc(-c3nc(-c4ccccn4)no3)cc2)cc1 [wact-153] + CNC(=O)O/N=C/C(C)(C)SC [aldicarb],active: 1
7,CC(=O)Nc1ccc(S(=O)(=O)C(CC(=O)c2ccccc2)c2ccc(N(C)C)cc2)cc1 (stereo not drawn) [wact-503] + CNC(=O)O/N=C/C(C)(C)SC [aldicarb],inactive: 0
8,O=C(Nc1ccc(Cl)c(Cl)c1)OCc1ccco1 [wact-418] + CNC(=O)O/N=C/C(C)(C)SC [aldicarb],inactive: 0
9,Clc1ccc(Br)cc1-c1nc(-c2ccncc2)no1 [wact-106] + CNC(=O)O/N=C/C(C)(C)SC [aldicarb],active: 1
10,Cc1cccc(C(=O)N2CCN(c3ccc([N+](=O)[O-])cc3)CC2)c1 [wact-217] + CNC(=O)O/N=C/C(C)(C)SC [aldicarb],inactive: 0
11,CCc1cc(I)ccc1NC(=S)NC(C)=O [wact-538] + CNC(=O)O/N=C/C(C)(C)SC [aldicarb],inactive: 0
12,CCN1CCN(c2ccc(NC(=O)c3cc4ccccc4cc3OC)cc2Cl)CC1 [wact-535] + CNC(=O)O/N=C/C(C)(C)SC [aldicarb],inactive: 0
13,O=[N+]([O-])c1ccc(N2CCN(CC3CC4C=CC3C4)CC2)cc1 (stereo not drawn) [wact-46] + CNC(=O)O/N=C/C(C)(C)SC [aldicarb],inactive: 0
14,O/N=C1\CCCc2c1[nH]c1ccc(Cl)cc21 [wact-33] + CNC(=O)O/N=C/C(C)(C)SC [aldicarb],inactive: 0
15,Cc1cc(I)ccc1NS(=O)(=O)c1ccc(F)cc1 [wact-408] + CNC(=O)O/N=C/C(C)(C)SC [aldicarb],inactive: 0
16,Clc1ccc(OCC#CCSc2ncccn2)cc1 [wact-121] + CNC(=O)O/N=C/C(C)(C)SC [aldicarb],inactive: 0
17,CCCCOc1ccc(-c2ncc(N)cn2)cc1 [wact-412] + CNC(=O)O/N=C/C(C)(C)SC [aldicarb],inactive: 0
18,COc1cc(OC)c(OC)cc1/C=C/c1ccc2cccc(OC)c2n1 [wact-526] + CNC(=O)O/N=C/C(C)(C)SC [aldicarb],inactive: 0
19,CNCc1ccc(-c2cccc(Cl)c2C)o1.Cl [wact-183] + CNC(=O)O/N=C/C(C)(C)SC [aldicarb],inactive: 0
20,N/C(=N\OC(=O)COc1ccc(Cl)cc1Br)c1ccncc1 [wact-440] + CNC(=O)O/N=C/C(C)(C)SC [aldicarb],inactive: 0
21,CCOC(=O)Cc1nc(-c2ccc(Cl)cc2)cs1 [wact-481] + CNC(=O)O/N=C/C(C)(C)SC [aldicarb],inactive: 0
22,CN(CC1CCCN(CCc2cccc(C(F)(F)F)c2)C1)C(=O)c1ccc(Cl)s1 (stereo not drawn) [wact-250] + CNC(=O)O/N=C/C(C)(C)SC [aldicarb],inactive: 0
23,Fc1ccc(CNC(=S)Nc2cnn(Cc3ccc(Br)cc3)c2)cc1 [wact-114] + CNC(=O)O/N=C/C(C)(C)SC [aldicarb],inactive: 0
24,COc1cc(CNCCO)ccc1OCc1ccc(Cl)cc1Cl.Cl [wact-96] + CNC(=O)O/N=C/C(C)(C)SC [aldicarb],inactive: 0
25,Clc1cccc(Cl)c1-c1nc(-c2ccccc2)no1 [wact-70] + CNC(=O)O/N=C/C(C)(C)SC [aldicarb],inactive: 0
26,Clc1ccc(-c2ncc(CN3CCCC(N4CCCC4)C3)cn2)cc1 (stereo not drawn) [wact-325] + CNC(=O)O/N=C/C(C)(C)SC [aldicarb],inactive: 0
27,O=C(OCc1ccccc1)Sc1nc2ccccc2o1 [wact-396] + CNC(=O)O/N=C/C(C)(C)SC [aldicarb],inactive: 0
28,Clc1ccc(Cc2nc(-c3cccs3)no2)cc1 [wact-566] + CNC(=O)O/N=C/C(C)(C)SC [aldicarb],inactive: 0

# Looked up one by one from the entries so far (two):
row,Compound,aldicarb interaction hit call
21,CCOC(=O)Cc1nc(-c2ccc(Cl)cc2)cs1 [wact-481] + CNC(=O)O/N=C/C(C)(C)SC [aldicarb],inactive: 0
28,Clc1ccc(Cc2nc(-c3cccs3)no2)cc1 [wact-566] + CNC(=O)O/N=C/C(C)(C)SC [aldicarb],inactive: 0
